# Measured values published in PubChem BioAssay AID2417 (National Center for Advancing Translational Sciences (NCATS), 2010).
# Out of some 140,000 compounds screened, about 4,300 (3.1%) were called active. The inconclusive results got no clear call from the source; some entries with a clear call stand among them for comparison.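 The calls were made as follows: active = readout at or below -70, meaning at least 70% loss of cells showing the perinucleolar compartment, a nuclear body marking cancer cells; inconclusive = readout between -30 and a set limit; inactive = the rest.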
# Test: High Content Assay for Compounds that inhibit the Assembly of the Perinucleolar Compartment;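 also: plate controls were DMSO wells for no effect and camptothecin positive control wells for full effect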
# Details: PC3M PTB-GFP, PNC prevalence imaging, 16 h; at 10 µM; active compounds read low
# In short: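 PC3M cells stably expressing PTB-GFP, 750–1000 cells/well, treated 16 h at 37 °C with compound (23 nl of library stock), in duplicate. After paraformaldehyde fixation and Hoechst stain, imaged at 20x; PNC prevalence scored by image analysis.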
row,Compound,"activity change (PNC), negative = inhibition"
1,Cc1c(C(Nc2ccccn2)c2ccc(Cl)cc2)c(=O)n(-c2ccccc2)n1C (stereo not given),inactive: 16.7%
2,CNC(=S)Nc1cccc2[nH]ncc12,inactive: 18.4%
3,COC(=O)C1CCN(c2cc(=O)n(Cc3ccc(F)cc3)c(=O)[nH]2)CC1,inconclusive: -55%
4,CC1(C)Oc2ccc3ccc(=O)oc3c2C(N2CCCCC2)C1O (stereo not given),inconclusive: -45.9%
5,O=C(NC(=S)NCC1CCCO1)c1cccs1 (stereo not given),inconclusive: -52.4%
6,Cc1cccc(C)c1N1C(=O)c2cccc([N+](=O)[O-])c2C1=O,inconclusive: -35.5%
7,Fc1ccc(Oc2cc(N3CCOCC3)nc(-c3ccccc3)n2)c(F)c1,inconclusive: -34.1%
8,CC(C)C(NC(=O)CSCc1ccc([N+](=O)[O-])cc1)C(C)C,inactive: 12.7%
9,Cc1nc2sc(C(c3cccc(F)c3)N3CC(C)OC(C)C3)c(O)n2n1 (stereo not given),inconclusive: -30.7%
10,O=C(Nc1ccc(C(=O)N2CCOCC2)cc1)c1cccs1,inactive: -11.6%
11,COc1ccc(-c2nc(SC)n(C)c(=O)c2C#N)cc1OC,inactive: -24.6%
12,CCOc1cc(C(=O)OC(C)C(=O)Nc2ncc(Cl)cc2Cl)ccc1OCC(=O)N1CCOCC1 (stereo not given),inconclusive: -42.5%
13,Cc1onc(-c2ccccc2)c1C(=O)Nc1ccc2c(c1)OCO2,inconclusive: -61.9%
14,O=C(Nc1ccccc1)N(CCN1CCOCC1)Cc1ccccc1F,inconclusive: -63.6%
15,O=C(COc1ccc(Cl)cc1Cl)Nc1c(-c2cccs2)nc2ccccn12,inactive: -3.53%
16,N#CC1=C(N)C(C#N)(C#N)[C@H](c2c(F)cccc2F)[C@H]2CC3(CC=C12)OCCO3,inconclusive: -56.8%
17,c1ccc(-c2nc(NCc3cccnc3)c3oc4ccccc4c3n2)cc1,inactive: 30.3%
18,CC(=O)Nc1ccn(Cc2c(F)cccc2Cl)n1,inconclusive: -33.6%
19,COc1ccccc1C(=O)N/C(=C/c1ccccc1)C(=O)NC(CCSC)C(=O)O (stereo not given),inconclusive: -44.9%
20,O=c1n(Cc2ccccc2Cl)c2sc3c(c2c2ncnn12)CCCC3,inactive: -4.64%
21,CN(C)CCCNC(=O)CCc1nc2ccccc2c(=O)[nH]1,inconclusive: -36.2%
22,CCSc1cc(N2CCCC2)nc(-c2ccccc2Cl)n1,inactive: -24.8%
23,Cc1ccc(OC(=O)COc2ccccc2C)c(-n2nc3ccccc3n2)c1,inactive: 8.06%

row,Compound,"activity change (PNC), negative = inhibition"
1,Cc1ccc(S(=O)(=O)C2(C(=O)N3CCCCC3C)CC2)cc1 (stereo not given),inconclusive: -43.2%
2,N/C(=N\OC(=O)c1ccccc1Cl)c1ccc(Cl)cc1,inconclusive: -39.9%
3,Cc1ccc(-c2nc(SCC(=O)NCCN3C(=O)CSC3=O)[nH]c2-c2ccc(C)cc2)cc1,inactive: -30%
4,O=C(NCc1cccnc1)/C(=C/c1ccc(-c2ccc(Cl)cc2)o1)S(=O)(=O)c1ccccc1,inactive: 30.7%
5,CCc1nnc(NC(=O)c2ccc(N(C)S(=O)(=O)c3ccccc3)cc2)s1,inconclusive: -47.6%
6,Cc1cc(Cl)cc(Cl)c1OCCCCN(C)C,inconclusive: -75.6%
7,COc1ccc(/C=N/NC(=O)CCCC(=O)NC2CCCCC2)cc1,inactive: -19.4%
8,COC(=O)c1ccc(NC(=O)CN2CCN(c3ccccc3)CC2)cc1,inactive: -3.46%
9,CC12CN3CC(C)(CN(C1)C3c1cc(Br)ccc1O)C2=O (stereo not given),inconclusive: -51.4%
10,COc1ccc(S(=O)(=O)n2nc(-c3cc(OC)c(OC)c(OC)c3)cc2N)cc1OC,inactive: 2.49%
11,COc1ccc(N(CC(=O)NCc2ccccc2)S(C)(=O)=O)cc1,inactive: -15.1%
12,CCOc1ccc(-c2ccc(/C=C3/C(=N)N4C=CSC4=NC3=O)o2)c([N+](=O)[O-])c1,inactive: 33.1%
13,Cc1c(C(=O)N2CCN(c3ccc(F)cc3)CC2)sc2nc(-c3ccccc3)cn12,inactive: -7.96%
14,O=S(=O)(Nc1ccc(N2CCOCC2)cc1)c1cccs1,inactive: -23.3%
15,O=C(NCCN1CCOCC1)c1cccc(Cl)c1,inconclusive: -32.7%
16,COC(=O)C1CCN(C(=O)/C=C/c2ccccc2)CC1,active: -114%
17,CCn1nc(C)c(/C=N\NC(=O)c2cccc(OC)c2)c1C,inconclusive: -55.5%
18,COc1ccc(C(=O)/C=C/c2cc(OC)c(O)c(OC)c2)c(F)c1,inactive: 4.24%
19,O=C1C2CC=C(Cl)CC2C(=O)N1c1ncn[nH]1 (stereo not given),inconclusive: -34.2%
20,O=C(CN(Cc1ccccc1)S(=O)(=O)c1ccc(S(=O)(=O)N2CCOCC2)cc1)Nc1ccccc1,inconclusive: -44.2%
21,CCS(=O)(=O)c1ccc2oc(SCC(=O)NC34CC5CC(CC(C5)C3)C4)nc2c1,inactive: -25.7%
22,CC(=O)Nc1ccc(S(=O)(=O)N2CCN(Cc3cccnc3)CC2)cc1,inconclusive: -35.8%
23,COc1cc(NC(=O)c2ccccc2)c(OC)cc1NC(=O)CN1CCOCC1,inactive: -29.3%

row,Compound,"activity change (PNC), negative = inhibition"
1,COc1ccc(C2=NOC(C(=O)NC(C)(C)C)C2)cc1 (stereo not given),inconclusive: -44.5%
2,CC(C)CC(NC(=O)CCl)c1ccccc1 (stereo not given),inconclusive: -58.7%
3,O=C(NCc1ccco1)c1ccc(CS(=O)(=O)c2cccc(C(F)(F)F)c2)o1,inconclusive: -52.3%
4,CCOC(=O)c1cccc2c(=O)c(C(=O)c3ccc(Cl)cc3)c(C(=O)OC)[nH]c12,inconclusive: -44.1%
5,Cc1cccc(CN(CC(=O)N/N=C/c2cccs2)S(=O)(=O)c2ccc(Cl)cc2)c1,inconclusive: -50.6%
6,C/C(=N/NC(=O)CNc1ccc(C)cc1)c1ccc(Cl)cc1,inactive: 18.4%
7,COc1ccc(CCNC(=O)CCc2ccc(S(=O)(=O)NC(C)C)cc2)cc1OC,inconclusive: -53.9%
8,CC1=CCC(/C=N\Nc2nnc3c(n2)[nH]c2ccccc23)CC1 (stereo not given),inactive: -9.49%
9,O=C(NCCc1ccccc1)c1ccc(=O)[nH]c1,inconclusive: -52.3%
10,NS(=O)(=O)c1cccnc1Nc1cccc(Cl)c1,inconclusive: -56.6%
11,Cc1nc2ncnn2c(C)c1CCC(=O)N1CCN(Cc2ccccc2)CC1,inconclusive: -47.8%
12,Cc1ccc(CNC(=O)C2=NNC(=O)CC2)cc1,inconclusive: -54.5%
13,Cc1ccc(C)c(N(C)C(=O)COc2cc(=O)n(C)c3ccccc23)c1,inactive: 41%
14,CNC(=O)c1cc2c(s1)CCCCCC2,inconclusive: -41.2%
15,O=C(COC(=O)c1cc(Br)ccc1Cl)NC1CC1,inconclusive: -73.9%
16,Cc1ccc2c(c1)cc(C)c1nnc(SCC(=O)NCc3ccco3)n12,inactive: 16%
17,CC1(C)CC(N2CCCC2)=CC(=[N+]2CCCC2)C1,inconclusive: -60.6%
18,CC(=O)/C(=C\Nc1ccc(OCc2ccccc2)cc1)c1ccccc1,inconclusive: -31.8%
19,CCCCCCC(=O)N1CCC(c2nc3c(nnn3Cc3ccccc3Cl)c(=O)[nH]2)CC1,inconclusive: -36.2%
20,Cc1cccc(NC(=O)CN2CCC(NC(=O)C3CCCCC3)CC2)c1C,inconclusive: -70.4%
21,Cc1ccccc1C(=O)NC1CCN(C(=O)N(c2ccccc2)c2ccccc2)CC1,inactive: 36.8%
22,COC(=O)C1=C(C)NC(=O)C1(NS(=O)(=O)c1ccc(NC(C)=O)cc1)C(F)(F)F (stereo not given),inactive: -6.64%
23,Cc1ccc(-n2nnnc2-c2cnn(-c3cccc(F)c3)c2C(F)(F)F)cc1,inactive: -4.53%

# Ordered by molar mass (descending): part of the list above
row,Compound,"activity change (PNC), negative = inhibition"
5,Cc1cccc(CN(CC(=O)N/N=C/c2cccs2)S(=O)(=O)c2ccc(Cl)cc2)c1,inconclusive: -50.6%
10,NS(=O)(=O)c1cccnc1Nc1cccc(Cl)c1,inconclusive: -56.6%
1,COc1ccc(C2=NOC(C(=O)NC(C)(C)C)C2)cc1 (stereo not given),inconclusive: -44.5%

# Carrying on:

row,Compound,"activity change (PNC), negative = inhibition"
1,Cc1nc(CC(=O)NNS(=O)(=O)c2ccc(F)c(Cl)c2)cs1,inconclusive: -56.9%
2,Cc1cc(Oc2cc(N)cc([N+](=O)[O-])c2)ccc1Cl,inconclusive: -40.8%
3,COc1ccc(OC)c(C2C(C(=O)c3cccs3)=C(O)C(=O)N2c2cc(C)on2)c1 (stereo not given),inconclusive: -69.2%
4,Cc1ccc2nc(-c3sc4nc(C)cc(C)c4c3N)[nH]c2c1,inactive: 20.3%
5,c1cncc(-c2nnc(-c3cccnc3)nn2)c1,inconclusive: -34.1%
6,Cc1cccc(N2CCN(C(=O)C3CCN(S(=O)(=O)c4cccc5nsnc45)CC3)CC2C)c1 (stereo not given),inconclusive: -66.3%
7,CCCCn1c(SCC(=O)c2ccccc2)nc2c1c(=O)[nH]c(=O)n2C,inconclusive: -59.3%
8,COc1ccc(S(=O)(=O)N2CCCC(C(=O)NCc3ccncc3)C2)cc1 (stereo not given),inconclusive: -65.2%
9,Cc1c(Cl)cccc1NC(=O)CSCc1cc(=O)[nH][nH]1,inconclusive: -33.6%
10,Cc1cc([N+](=O)[O-])nn1CC(=O)Nc1nccs1,active: -89.2%
11,O=C(c1cc(-c2ccco2)on1)N1CCN(c2ccccc2)CC1,inactive: 4.84%
12,Cc1ccc2cccnc2c1NC(=S)NC(=O)c1ccccc1,inactive: -29.6%
13,CC1(C)CC(=O)C(C=NCCN2CCN(C(=O)CC3CCCC3)CC2)=C(O)C1,inactive: -3.57%
14,Cc1ccc(N2C(=O)c3ccccc3NC2C(C)Cc2ccc3c(c2)OCO3)cc1 (stereo not given),inconclusive: -36.8%
15,C=CC[C@H]1CC(Cc2ccccc2)=C[C@H](CC=C)N1,active: -80.8%
16,COc1cc(OC)cc(C(=O)N[C@H](C(=O)OCC(=O)Nc2ccc(F)c(F)c2)C(C)C)c1,inactive: 28.9%
17,CCCCCCn1c(SCC(C)C)nc2c1c(=O)[nH]c(=O)n2C,inactive: 35.4%
18,CCc1nnc(NS(=O)(=O)c2ccc(NC(=S)NC(=O)/C=C/c3ccc(C(C)C)cc3)cc2)s1,inactive: 15%
19,O=C1NCCCc2c1no[n+]2[O-],inactive: -1.44%
20,Cn1c(=O)n(CCc2ccccc2)c(=O)c2c1ncn2Cc1ccccc1,inconclusive: -55.7%
21,COC(=O)c1c(C)[nH]c(C(=O)C(C)Sc2nnc(-c3cc(OC)c(OC)c(OC)c3)o2)c1C (stereo not given),inactive: -19.4%
